# According to the supplement of paper PMC8728848:
# The list shows a part of the results.
# Key:
# Assay in all cases: glycan array binding signal (z-score within array); higher = stronger binding
# Details in all cases: glycan notation: IUPAC condensed, linker removed
# [1] = molecular target: Fuc(a1-2)[Gal(a1-4)]Gal(b1-4)GlcNAc
# Method in brief: (§1)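 The Consortium for Functional Glycomics database supplied 3228 glycan arrays, of which those lacking an available protein sequence were dropped. The binding signal, a within-array Z-score, was averaged across arrays of the same protein sequence and across linkers. Negative scores can be read as non-binding.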
# [2] = molecular target: Fuc(a1-2)[GalNAc(a1-3)]Gal
# Method in brief: as §1
# [3] = molecular target: Fuc(a1-2)[GalNAc(a1-3)]Gal(b1-3)GalNAc(a1-3)[Fuc(a1-2)]Gal(b1-4)GlcNAc
# Method in brief: as §1
# [4] = molecular target: Fuc(a1-2)[GalNAc(a1-3)]Gal(b1-3)GalNAc(b1-3)Gal(a1-4)Gal(b1-4)Glc
# Method in brief: as §1
# [5] = molecular target: Fuc(a1-2)[GalNAc(a1-3)]Gal(b1-3)GlcNAc
# Method in brief: as §1
# [6] = molecular target: Fuc(a1-2)[GalNAc(a1-3)]Gal(b1-3)GlcNAc(b1-2)Man(a1-3)[Fuc(a1-2)[GalNAc(a1-3)]Gal(b1-3)GlcNAc(b1-2)Man(a1-6)]Man(b1-4)GlcNAc(b1-4)GlcNAc
# Method in brief: as §1
# [7] = molecular target: Fuc(a1-2)[GalNAc(a1-3)]Gal(b1-3)GlcNAc(b1-2)Man(a1-3)[Fuc(a1-2)[GalNAc(a1-3)]Gal(b1-3)GlcNAc(b1-2)Man(a1-6)]Man(b1-4)GlcNAc(b1-4)[Fuc(a1-6)]GlcNAc
# Method in brief: as §1
# [8] = molecular target: Fuc(a1-2)[GalNAc(a1-3)]Gal(b1-3)GlcNAc(b1-3)GalNAc
# Method in brief: as §1
# [9] = molecular target: Fuc(a1-2)[GalNAc(a1-3)]Gal(b1-3)GlcNAc(b1-6)GalNAc
# Method in brief: as §1
# [10] = molecular target: Fuc(a1-2)[GalNAc(a1-3)]Gal(b1-4)Glc
# Method in brief: as §1
# [11] = molecular target: Fuc(a1-2)[GalNAc(a1-3)]Gal(b1-4)GlcNAc
# Method in brief: as §1
# [12] = molecular target: Fuc(a1-2)[GalNAc(a1-3)]Gal(b1-4)GlcNAc(b1-2)Man
# Method in brief: as §1
# [13] = molecular target: Fuc(a1-2)[GalNAc(a1-3)]Gal(b1-4)GlcNAc(b1-2)Man(a1-3)[Fuc(a1-2)[GalNAc(a1-3)]Gal(b1-4)GlcNAc(b1-2)Man(a1-6)]Man(b1-4)GlcNAc(b1-4)GlcNAc
# Method in brief: as §1
# [14] = molecular target: Fuc(a1-2)[GalNAc(a1-3)]Gal(b1-4)GlcNAc(b1-2)Man(a1-3)[Fuc(a1-2)[GalNAc(a1-3)]Gal(b1-4)GlcNAc(b1-2)Man(a1-6)]Man(b1-4)GlcNAc(b1-4)[Fuc(a1-6)]GlcNAc
# Method in brief: as §1
# [15] = molecular target: Fuc(a1-2)[GalNAc(a1-3)]Gal(b1-4)GlcNAc(b1-3)Gal(b1-4)GlcNAc
# Method in brief: as §1
# [16] = molecular target: Fuc(a1-2)[GalNAc(a1-3)]Gal(b1-4)GlcNAc(b1-3)Gal(b1-4)GlcNAc(b1-3)Gal(b1-4)GlcNAc
# Method in brief: as §1
# [17] = molecular target: Fuc(a1-2)[GalNAc(a1-3)]Gal(b1-4)GlcNAc(b1-3)GalNAc
# Method in brief: as §1
# [18] = molecular target: Fuc(a1-2)[GalNAc(a1-3)]Gal(b1-4)GlcNAc(b1-3)[Fuc(a1-2)[GalNAc(a1-3)]Gal(b1-4)GlcNAc(b1-6)]GalNAc
# Method in brief: as §1
# [19] = molecular target: Fuc(a1-2)[GalNAc(a1-3)]Gal(b1-4)GlcNAc(b1-6)GalNAc
# Method in brief: as §1
# [20] = molecular target: Fuc(a1-2)[GalNAc(a1-3)]Gal(b1-4)[Fuc(a1-3)]GlcNAc
# Method in brief: as §1
# [21] = molecular target: Fuc(a1-2)[GalNAc(a1-3)]Gal(b1-4)[Fuc(a1-3)]GlcNAc(b1-3)GalNAc
# Method in brief: as §1
# [22] = molecular target: Fuc(a1-2)[GalNAc(a1-4)]Gal(b1-4)GlcNAc
# Method in brief: as §1
# [23] = molecular target: Fuc(a1-2)[GalNAc(b1-3)]Gal
# Method in brief: as §1
# [24] = molecular target: Fuc(a1-3)GlcNAc
# Method in brief: as §1
# [25] = molecular target: Fuc(a1-3)[Gal(b1-4)]Glc6S
# Method in brief: as §1
# [26] = molecular target: Fuc(a1-3)[Gal(b1-4)]GlcNAc
# Method in brief: as §1
# [27] = molecular target: Fuc(a1-3)[Gal(b1-4)]GlcNAc(b1-2)Man
# Method in brief: as §1
# [28] = molecular target: Fuc(a1-3)[Gal(b1-4)]GlcNAc(b1-2)Man(a1-3)[Fuc(a1-3)[Gal(b1-4)]GlcNAc(b1-2)Man(a1-6)]Man(b1-4)GlcNAc(b1-4)GlcNAc
# Method in brief: as §1
# [29] = molecular target: Fuc(a1-3)[Gal(b1-4)]GlcNAc(b1-2)Man(a1-3)[Fuc(a1-3)[Gal(b1-4)]GlcNAc(b1-2)Man(a1-6)]Man(b1-4)GlcNAc(b1-4)[Fuc(a1-6)]GlcNAc
# Method in brief: as §1
# [30] = molecular target: Fuc(a1-3)[Gal(b1-4)]GlcNAc(b1-3)Gal(b1-3)[Fuc(a1-4)]GlcNAc
# Method in brief: as §1
# [31] = molecular target: Fuc(a1-3)[Gal(b1-4)]GlcNAc(b1-3)Gal(b1-4)[Fuc(a1-3)]GlcNAc
# Method in brief: as §1
# [32] = molecular target: Fuc(a1-3)[Gal(b1-4)]GlcNAc(b1-3)Gal(b1-4)[Fuc(a1-3)]GlcNAc(b1-3)Gal(b1-4)[Fuc(a1-3)]GlcNAc
# Method in brief: as §1
# [33] = molecular target: Fuc(a1-3)[Gal(b1-4)]GlcNAc(b1-3)GalNAc
# Method in brief: as §1
# [34] = molecular target: Fuc(a1-3)[Gal(b1-4)]GlcNAc(b1-6)GalNAc
# Method in brief: as §1
# [35] = molecular target: Fuc(a1-3)[Gal(b1-4)]GlcNAc(b1-6)[Gal(b1-3)GlcNAc(b1-3)]Gal(b1-4)Glc
# Method in brief: as §1
# [36] = molecular target: Fuc(a1-3)[Gal(b1-4)]GlcNAc6S
# Method in brief: as §1
# [37] = molecular target: Fuc(a1-3)[Gal3S(b1-4)]Glc
# Method in brief: as §1
# [38] = molecular target: Fuc(a1-3)[Gal3S(b1-4)]GlcNAc
# Method in brief: as §1
binder,measurement,setting,value
PX14343E-bfa-545-24-545 (Bacteroides fragilis) (protein) LDRYPQEELSDGSFWKTPDDANKVVSDLYGYLSTWDQDNDINSDNATMGIKWAAGNVSKGIYDPADQGWSGDYANVRQCNLILSKIDEIPDYPEADKTKALGQVYFFRAYIYFNLIRSFGDVPYIDKPLDLKDMEGITRMPRAEVYEKIMADFDKAIAALPTEWGASDYGRVTKGAAMAMKARAALYYGNWDTAATEAKNVMDLGLYELYDKDNTGKYAELFWEKADGCDEFILVTQFNYPDKTHYLMGWECFPTKGWGGMNPTQSLVDAFEDSEGAPISKSKIYDPTDPFKNRDPRLEVDILHDGEEMYGVTIKVAPLASSGSTGINQHNDATETGYYGQKWLDPSLDPLSDGWNMGKDWVHIRYAEVLLTYAEAKNELQGLDPEAFDAVNQVRRRVGMPELQNTDPSKPTYCATQDDLRQRIRNEWRVEFCLEGGKRMWDIRRWGIAKDVLNAPFEGLKYKIVDNPNDPDKKVDGGKMCILYQGDPIILSGSRYSDNNYLFPVPQSEIDLNPALTQNPGY,glycan array binding signal (z-score),[1],0.32
same,glycan array binding signal (z-score),[2],-0.063
same,glycan array binding signal (z-score),[3],-0.41
same,glycan array binding signal (z-score),[4],-0.347
same,glycan array binding signal (z-score),[5],-0.23
same,glycan array binding signal (z-score),[6],0.794
same,glycan array binding signal (z-score),[7],-0.147
same,glycan array binding signal (z-score),[8],0.051
same,glycan array binding signal (z-score),[9],-0.998
same,glycan array binding signal (z-score),[10],-0.466
same,glycan array binding signal (z-score),[11],-0.287
same,glycan array binding signal (z-score),[12],-0.621
same,glycan array binding signal (z-score),[13],1.44
same,glycan array binding signal (z-score),[14],0.994
same,glycan array binding signal (z-score),[15],-0.646
same,glycan array binding signal (z-score),[16],-0.373
same,glycan array binding signal (z-score),[17],-0.508
same,glycan array binding signal (z-score),[18],-0.307
same,glycan array binding signal (z-score),[19],0.103
same,glycan array binding signal (z-score),[20],0.004
same,glycan array binding signal (z-score),[21],0.635
same,glycan array binding signal (z-score),[22],-0.813
same,glycan array binding signal (z-score),[23],-0.716
same,glycan array binding signal (z-score),[24],-0.519
same,glycan array binding signal (z-score),[25],-0.456
same,glycan array binding signal (z-score),[26],-0.254
same,glycan array binding signal (z-score),[27],0.56
same,glycan array binding signal (z-score),[28],4.63
same,glycan array binding signal (z-score),[29],1.08
same,glycan array binding signal (z-score),[30],0.483
same,glycan array binding signal (z-score),[31],1.39
same,glycan array binding signal (z-score),[32],0.244
same,glycan array binding signal (z-score),[33],1.3
same,glycan array binding signal (z-score),[34],0.581
same,glycan array binding signal (z-score),[35],-0.048
same,glycan array binding signal (z-score),[36],-1.05
same,glycan array binding signal (z-score),[37],-0.931
same,glycan array binding signal (z-score),[38],-0.676

# Part of the list above, tab-delimited:
binder	measurement	setting	value
PX14343E-bfa-545-24-545 (Bacteroides fragilis) (protein) LDRYPQEELSDGSFWKTPDDANKVVSDLYGYLSTWDQDNDINSDNATMGIKWAAGNVSKGIYDPADQGWSGDYANVRQCNLILSKIDEIPDYPEADKTKALGQVYFFRAYIYFNLIRSFGDVPYIDKPLDLKDMEGITRMPRAEVYEKIMADFDKAIAALPTEWGASDYGRVTKGAAMAMKARAALYYGNWDTAATEAKNVMDLGLYELYDKDNTGKYAELFWEKADGCDEFILVTQFNYPDKTHYLMGWECFPTKGWGGMNPTQSLVDAFEDSEGAPISKSKIYDPTDPFKNRDPRLEVDILHDGEEMYGVTIKVAPLASSGSTGINQHNDATETGYYGQKWLDPSLDPLSDGWNMGKDWVHIRYAEVLLTYAEAKNELQGLDPEAFDAVNQVRRRVGMPELQNTDPSKPTYCATQDDLRQRIRNEWRVEFCLEGGKRMWDIRRWGIAKDVLNAPFEGLKYKIVDNPNDPDKKVDGGKMCILYQGDPIILSGSRYSDNNYLFPVPQSEIDLNPALTQNPGY	glycan array binding signal (z-score)	[27]	0.56
same	glycan array binding signal (z-score)	[28]	4.63
